{
  "sequences": {"note": "By UniProt entry, the sequences of proteins in these tests, tags left out.", "UniProt Q9H081": "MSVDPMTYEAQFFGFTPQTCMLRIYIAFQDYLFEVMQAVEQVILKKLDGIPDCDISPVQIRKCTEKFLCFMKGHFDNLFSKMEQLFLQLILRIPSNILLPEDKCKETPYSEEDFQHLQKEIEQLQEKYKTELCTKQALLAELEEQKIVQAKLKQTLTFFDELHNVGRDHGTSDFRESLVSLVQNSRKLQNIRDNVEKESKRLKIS"},
  "source": "paper PMC9243202",
  "target": "FLAG-tagged FTO (fat mass of obesity-associated protein) (UniProt Q9C0B1)",
  "assay": "co-IP; co-IP of MIS12 and FLAG-FTO in HEK293T cells",
  "note": "No constants are given. Whether binding was seen depends on the method and setting. Binding seen in cells or lysates may run through a third protein. Some binding calls cover weakened binding; strength is not graded here.",
  "data": [
    {"substance": "MIS12 (from UniProt Q9H081 1-205)", "values": [
      {"measurement": "binding", "value": "binds"}
    ]}
  ]
}
